Tested on: patients with advanced solid tumors
Assay: Safety and tolerability (adverse events, NCI CTCAE v4.03), phase I dose-escalation study
Format: in vivo, human
Settings: all schedules, range
Text: This was a phase I, open-label, dose-escalation study of single-agent TAK-931. Dose escalation of TAK-931 was cohort based with an adaptive design using Bayesian logistic regression modeling (BLRM) with pharmacokinetic guidance. BLRM also guided MTD estimation from the second dose. Patients were enrolled in one of four dosing schedules (A, B, D, or E; Supplementary Fig. S1) to receive TAK-931. Two additional schedules were planned (C and F) but no patients were enrolled. Schedule A included an initial accelerated escalation phase. […] A safety expansion was permitted once MTD had been determined. […]
DLTs included: cycle 1 grade ≥3 hematologic and non-hematologic events or grade 2 non-hematologic events considered by the investigator to be TAK-931-related, grade 2 ejection fraction decrease, >2 weeks delay in initiating cycle 2 (1 week for schedules D and E), and >50% TAK-931 dose reduction in cycle 1 due to treatment-related adverse events (AEs; see Supplementary Materials and Methods for full DLT criteria). Toxicity was evaluated by NCI Common Terminology Criteria for Adverse Events (version 4.03). Tumor response was measured using the RECIST (version 1.1) ([16]). […]

Cc1n[nH]cc1-c1cc2nc([C@@H]3CC4CCN3CC4)[nH]c(=O)c2s1 [TAK-931, simurosertib]
Mean treatment duration (4–469): 86.3 days
Median relative dose intensity (29%–100%): 95.0%
